# Measurements as given in article PMC3516556.
# Protein sequences, listed by entry. Tags and fused reporters are not part of them. Residues count along the entry.
# UniProt P42260, residues 32-908: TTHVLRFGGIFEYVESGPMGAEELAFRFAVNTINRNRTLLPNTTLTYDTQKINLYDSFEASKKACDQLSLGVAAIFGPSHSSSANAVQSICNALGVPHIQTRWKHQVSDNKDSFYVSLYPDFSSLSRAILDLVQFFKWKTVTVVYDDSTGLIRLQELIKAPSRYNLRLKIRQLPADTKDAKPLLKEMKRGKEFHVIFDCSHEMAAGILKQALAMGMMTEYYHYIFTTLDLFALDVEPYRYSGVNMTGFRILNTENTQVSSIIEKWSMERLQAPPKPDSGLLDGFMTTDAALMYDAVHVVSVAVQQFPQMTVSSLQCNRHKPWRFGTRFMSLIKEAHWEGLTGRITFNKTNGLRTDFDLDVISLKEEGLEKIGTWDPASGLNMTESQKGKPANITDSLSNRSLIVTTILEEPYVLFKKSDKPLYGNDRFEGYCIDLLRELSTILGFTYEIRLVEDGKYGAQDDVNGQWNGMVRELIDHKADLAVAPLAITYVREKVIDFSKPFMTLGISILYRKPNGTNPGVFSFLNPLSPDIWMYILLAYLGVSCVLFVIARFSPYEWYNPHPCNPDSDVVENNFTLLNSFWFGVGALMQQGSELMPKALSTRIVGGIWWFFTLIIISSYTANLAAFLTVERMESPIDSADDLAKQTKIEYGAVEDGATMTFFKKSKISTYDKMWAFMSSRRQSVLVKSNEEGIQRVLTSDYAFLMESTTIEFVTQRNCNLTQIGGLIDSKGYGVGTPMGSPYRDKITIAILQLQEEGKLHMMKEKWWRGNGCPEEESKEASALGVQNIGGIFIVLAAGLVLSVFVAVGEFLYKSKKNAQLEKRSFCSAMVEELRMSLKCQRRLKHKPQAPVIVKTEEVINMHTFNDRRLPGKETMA
# UniProt P39087, residues 32-908: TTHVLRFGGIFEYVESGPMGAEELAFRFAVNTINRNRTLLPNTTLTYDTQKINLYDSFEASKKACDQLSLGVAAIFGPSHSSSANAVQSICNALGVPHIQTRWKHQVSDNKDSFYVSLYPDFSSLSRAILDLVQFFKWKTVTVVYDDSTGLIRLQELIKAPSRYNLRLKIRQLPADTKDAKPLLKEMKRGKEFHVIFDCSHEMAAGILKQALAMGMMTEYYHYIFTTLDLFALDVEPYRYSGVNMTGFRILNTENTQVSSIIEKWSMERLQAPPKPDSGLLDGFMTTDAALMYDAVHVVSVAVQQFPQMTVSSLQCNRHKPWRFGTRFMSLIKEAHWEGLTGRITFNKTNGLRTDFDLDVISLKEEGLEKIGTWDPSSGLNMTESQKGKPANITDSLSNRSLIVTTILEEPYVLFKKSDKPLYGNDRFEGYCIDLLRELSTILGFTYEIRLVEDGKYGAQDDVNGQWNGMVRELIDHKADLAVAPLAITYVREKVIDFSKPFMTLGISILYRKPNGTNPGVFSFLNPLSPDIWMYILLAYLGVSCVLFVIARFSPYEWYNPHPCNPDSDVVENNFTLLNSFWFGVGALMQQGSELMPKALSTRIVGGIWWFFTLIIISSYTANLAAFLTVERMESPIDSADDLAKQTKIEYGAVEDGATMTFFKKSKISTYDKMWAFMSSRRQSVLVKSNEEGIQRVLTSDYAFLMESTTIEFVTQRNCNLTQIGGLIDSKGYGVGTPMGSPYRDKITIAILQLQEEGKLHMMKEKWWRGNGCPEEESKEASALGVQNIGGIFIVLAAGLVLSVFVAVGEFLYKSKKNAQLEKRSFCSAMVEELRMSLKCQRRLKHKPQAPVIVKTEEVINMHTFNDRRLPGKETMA
# UniProt Q62083, residues 22-105: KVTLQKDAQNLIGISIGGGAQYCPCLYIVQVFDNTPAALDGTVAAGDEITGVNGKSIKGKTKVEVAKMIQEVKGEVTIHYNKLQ
# No constants are given. Whether binding was seen depends on the method and setting. For some of these results: In cells and extracts the contact can be indirect. Some results given as binding are weak or reduced against the parent protein; the word gives no strength. For some of these results: Tags and fused reporters may be left off the sequences shown.
# T1: Neto2 (native, mouse brain) (mouse (endogenous in cerebellum and whole brain)) (UniProt Q8BNJ6)
# T1 sequence: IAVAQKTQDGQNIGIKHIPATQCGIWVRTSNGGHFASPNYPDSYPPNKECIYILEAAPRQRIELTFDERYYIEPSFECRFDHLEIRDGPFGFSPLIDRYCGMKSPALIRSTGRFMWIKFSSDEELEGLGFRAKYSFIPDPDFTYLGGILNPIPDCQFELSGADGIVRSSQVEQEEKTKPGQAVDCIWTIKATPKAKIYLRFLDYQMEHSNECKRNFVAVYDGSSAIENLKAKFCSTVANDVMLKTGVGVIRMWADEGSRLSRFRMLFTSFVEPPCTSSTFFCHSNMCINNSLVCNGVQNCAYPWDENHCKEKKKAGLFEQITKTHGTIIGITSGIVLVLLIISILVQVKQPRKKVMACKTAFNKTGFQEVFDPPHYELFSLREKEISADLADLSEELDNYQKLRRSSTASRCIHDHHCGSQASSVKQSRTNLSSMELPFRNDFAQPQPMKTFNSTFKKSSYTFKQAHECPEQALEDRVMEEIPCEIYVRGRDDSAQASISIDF
# T2: Neto2 cytoplasmic domain (Neto2(CD), amino acids 368-525) fused to the GAL4 DNA-binding domain (mouse) (UniProt Q8BNJ6)
# T2 sequence: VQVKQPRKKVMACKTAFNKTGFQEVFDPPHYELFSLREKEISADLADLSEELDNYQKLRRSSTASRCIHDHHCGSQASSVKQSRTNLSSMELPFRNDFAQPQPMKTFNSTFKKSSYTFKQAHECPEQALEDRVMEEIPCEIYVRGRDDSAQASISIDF
# B1: GluK5 KAR subunit (native, mouse cerebellum) (receptor, UniProt Q61626 15-979)
# chain: NPSCQVLSSLRMAAILDDQTVCGRGERLALALAREQINGIIEVPAKARVEVDIFELQRDSQYETTDTMCQILPKGVVSVLGPSSSPASASTVSHICGEKEIPHIKVGPEETPRLQYLRFASVSLYPSNEDVSLAVSRILKSFNYPSASLICAKAECLLRLEELVRGFLISKETLSVRMLDDSRDPTPLLKEIRDDKVSTIIIDANASISHLVLRKASELGMTSAFYKYILTTMDFPILHLDGIVEDSSNILGFSMFNTSHPFYPEFVRSLNMSWRENCEASTYPGPALSAALMFDAVHVVVSAVRELNRSQEIGVKPLACTSANIWPHGTSLMNYLRMVEYDGLTGRVEFNSKGQRTNYTLRILEKSRQGHREIGVWYSNRTLAMNATTLDINLSQTLANKTLVVTTILENPYVMRRPNFQALSGNERFEGFCVDMLRELAELLRFRYRLRLVEDGLYGAPEPNGSWTGMVGELINRKADLAVAAFTITAEREKVIDFSKPFMTLGISILYRVHMGRKPGYFSFLDPFSPAVWLFMLLAYLAVSCVLFLAARLSPYEWYNPHPCLRARPHILENQYTLGNSLWFPVGGFMQQGSEIMPRALSTRCVSGVWWAFTLIIISSYTANLAAFLTVQRMEVPVESADDLADQTNIEYGTIHAGSTMTFFQNSRYQTYQRMWNYMQSKQPSVFVKSTEEGIARVLNSRYAFLLESTMNEYHRRLNCNLTQIGGLLDTKGYGIGMPLGSPFRDEITLAILQLQENNRLEILKRKWWEGGRCPKEEDHRAKGLGMENIGGIFVVLICGLIIAVFVAVMEFIWSTRRSAESEEVSVCQEMLQELRHAVSCRKTSRSRRRRRPGGPSRALLSLRAVREMRLSNGKLYSAGAGGDAGAHGGPQRLLDDPGPPGGPRPQAPTPCTHVRVCQECRRIQALRASGAGAPPRGLGTPAEATSPPRPRPGPTGPRELTEHE
# B2: Full length mouse Neto2 (expressed in COS-7) (protein, UniProt Q8BNJ6 23-525)
# chain: T1 sequence
# Legend:
# [1] = target: T1, Neto2 (native, mouse brain) (mouse (endogenous in cerebellum and whole brain)); experiment: co-IP; mouse cerebellar lysates (wild-type; Neto2-null as control), immunoprecipitation with anti-Neto2 antibodies, immunoblot
# [2] = target: T2, Neto2 cytoplasmic domain (Neto2(CD), amino acids 368-525) fused to the GAL4 DNA-binding domain (mouse); experiment: two-hybrid; GAL4 DNA-binding domain fusions in pDBLeu, GAL4 activation domain fusions in pPC86, MaV203 cells; growth on -Trp/-Leu/-His and lacZ reporter (ß-galactosidase assay)
# FLAG-GluK2 = FLAG-GluK2 (UniProt P42260); experiment: co-IP; COS-7 cells transfected with combinations of FLAG-GluK2, Neto2 or Neto2Δ7 and GRIP(PDZ4-7)-myc; lysates immunoprecipitated with an anti-GluK2 antibody, western blot
Molecule,binding [1],also measured
"GluK2 KAR subunit (native, mouse cerebellum) (from UniProt P39087 32-908) (receptor)",binds,–
PDZ domain of PICK1 (two-hybrid prey) (from UniProt Q62083 22-105) (domain or fragment),–,binding [2]: no binding
B1,binds,–
B2,–,binding (FLAG-GluK2): binds
